Test results reported in publication PMC13100048.
Results are given in words; binding and its absence hold for the method and conditions named. In cells and extracts the contact can be indirect. Some entries that bind do so weakly or less than the wild type. Tags and fused reporters may be left off the sequences shown.

Target: T1, Major Vault Protein A (endogenous, in vault particles) (D. discoideum (endogenous in Ax2-214 derived cells)) (UniProt P34118)
T1 sequence: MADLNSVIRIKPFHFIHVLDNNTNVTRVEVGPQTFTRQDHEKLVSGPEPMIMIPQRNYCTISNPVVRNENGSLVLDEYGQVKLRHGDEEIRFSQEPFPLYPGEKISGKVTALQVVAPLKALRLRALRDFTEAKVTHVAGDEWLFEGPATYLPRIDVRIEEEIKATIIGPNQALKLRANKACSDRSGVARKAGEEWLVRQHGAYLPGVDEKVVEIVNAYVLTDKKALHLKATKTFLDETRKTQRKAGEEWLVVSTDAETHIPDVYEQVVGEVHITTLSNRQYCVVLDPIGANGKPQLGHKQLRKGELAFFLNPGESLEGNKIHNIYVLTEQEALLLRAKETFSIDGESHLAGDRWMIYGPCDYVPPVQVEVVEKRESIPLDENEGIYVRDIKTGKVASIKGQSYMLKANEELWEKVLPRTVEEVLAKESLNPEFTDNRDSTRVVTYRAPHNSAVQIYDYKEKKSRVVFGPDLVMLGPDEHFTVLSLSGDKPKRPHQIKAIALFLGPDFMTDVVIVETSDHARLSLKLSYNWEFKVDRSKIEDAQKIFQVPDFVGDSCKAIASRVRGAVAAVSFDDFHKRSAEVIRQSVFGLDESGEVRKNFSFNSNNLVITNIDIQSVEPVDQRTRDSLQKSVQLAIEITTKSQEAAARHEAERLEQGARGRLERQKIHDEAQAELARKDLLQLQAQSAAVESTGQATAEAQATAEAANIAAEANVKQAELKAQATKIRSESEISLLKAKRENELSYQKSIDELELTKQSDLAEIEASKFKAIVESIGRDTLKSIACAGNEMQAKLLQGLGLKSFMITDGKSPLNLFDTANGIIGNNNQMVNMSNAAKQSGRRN
Experiment: SEC + co-sedimentation; subcellular fractionation in combination with size exclusion chromatography of D. discoideum cells expressing MVPA-TurboID; details in Supplementary Fig. 2 and Supplementary Methods

binding: binds
B1: MVPA-TurboID fusion protein (D. discoideum Major Vault Protein A fused to the TurboID biotin ligase) (protein, UniProt P34118 1-843)
chain: T1 sequence
